# Record: PubChem BioAssay AID1259308 (NCATS, 2017)
# Screen: 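Genes whose loss raises luciferase production in HEK293 cells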 (primary screen)
# System: human HEK293 embryonic kidney cells stably expressing firefly luciferase (HEK-CMV-Luc2-Hygro)
# Reagents: single siRNA against human genes, 0.8 pmol siRNA per well
# Timing: 72 h
# Measurement: 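Luciferase light (ONE-Glo) measured on one replicate plate set and viability (CellTiter-Glo) on the other, scaled to a negative control siRNA, with robust z-scores and luciferase per cell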
# Scale: total luciferase, z-score: higher = more reporter protein produced
# Active means: 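Active when the median/MAD z-score for overall luciferase is greater than 3; a gene was taken forward for validation with new siRNAs if at least two of its three siRNAs passed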
# Meaning of the calls: active = raised luciferase; inactive = no rise
# Here is a random part of about 59,000 reagents. About 1,510 of all reagents (2.6%) were called active. 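Calls use total luciferase alone and ignore viability, so some active siRNAs may act by altering cell number.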 The numbers tell different reagents against one gene apart. Further read-outs or replicates are left out here.
gene,siRNA no.,"total luciferase, z-score",Outcome
ENTPD6,1,-0.576,inactive
ENTPD6,2,0.233,inactive
ENTPD6,3,-0.85,inactive
TRIM27,1,-2.16,inactive
TRIM27,2,1.06,inactive
TRIM27,3,-0.637,inactive
ASTN1,1,0.557,inactive
ASTN1,2,1.19,inactive
ASTN1,3,-1.54,inactive
ADAMTS17,1,-0.308,inactive
ADAMTS17,2,0.493,inactive
ADAMTS17,3,-1.22,inactive
GAL3ST1,1,0.495,inactive
GAL3ST1,2,-0.505,inactive
GAL3ST1,3,1.15,inactive
SLURP1,1,0.258,inactive
SLURP1,2,-0.58,inactive
SLURP1,3,1.67,inactive
MED26,1,-0.99,inactive
MED26,2,-1.93,inactive
MED26,3,0.156,inactive
GCHFR,1,0.208,inactive
GCHFR,2,-1.18,inactive
GCHFR,3,-0.0797,inactive
POLR2D,1,-3.25,inactive
POLR2D,2,-2.94,inactive
POLR2D,3,-3.36,inactive
NT5C2,1,-2.24,inactive
NT5C2,2,-0.544,inactive
NT5C2,3,2.58,inactive
ZNF784,1,1.88,inactive
ZNF784,2,0.375,inactive
ZNF784,3,0.911,inactive
KCNAB3,1,0.65,inactive
KCNAB3,2,-2.36,inactive
KCNAB3,3,0.876,inactive
PEX14,1,-0.205,inactive
PEX14,2,0.917,inactive
PEX14,3,1.28,inactive
RALGAPA2,1,-0.0936,inactive
RALGAPA2,2,-0.706,inactive
RALGAPA2,3,-0.482,inactive
RABGGTB,1,-0.46,inactive
RABGGTB,2,-0.121,inactive
RABGGTB,3,-0.446,inactive
LRRC45,1,-1.15,inactive
LRRC45,2,-0.418,inactive
LRRC45,3,-0.398,inactive
BAG5,1,-0.327,inactive
BAG5,2,-0.017,inactive
BAG5,3,2.7,inactive
PNMA3,1,-1.72,inactive
PNMA3,2,2.7,inactive
PNMA3,3,-0.916,inactive
ZDHHC6,1,0.122,inactive
ZDHHC6,2,-1.2,inactive
ZDHHC6,3,0.0557,inactive

Part of the list above, reformatted.
ENTPD6 #3 | total luciferase, z-score = -0.85; Outcome = inactive
TRIM27 #1 | total luciferase, z-score = -2.16; Outcome = inactive
TRIM27 #2 | total luciferase, z-score = 1.06; Outcome = inactive
TRIM27 #3 | total luciferase, z-score = -0.637; Outcome = inactive
ASTN1 #1 | total luciferase, z-score = 0.557; Outcome = inactive
ASTN1 #2 | total luciferase, z-score = 1.19; Outcome = inactive
ASTN1 #3 | total luciferase, z-score = -1.54; Outcome = inactive
